Data as given in paper PMC10116723.

Protein sequences, listed by entry. Tags and fused reporters are not part of them.
UniProt Q14457: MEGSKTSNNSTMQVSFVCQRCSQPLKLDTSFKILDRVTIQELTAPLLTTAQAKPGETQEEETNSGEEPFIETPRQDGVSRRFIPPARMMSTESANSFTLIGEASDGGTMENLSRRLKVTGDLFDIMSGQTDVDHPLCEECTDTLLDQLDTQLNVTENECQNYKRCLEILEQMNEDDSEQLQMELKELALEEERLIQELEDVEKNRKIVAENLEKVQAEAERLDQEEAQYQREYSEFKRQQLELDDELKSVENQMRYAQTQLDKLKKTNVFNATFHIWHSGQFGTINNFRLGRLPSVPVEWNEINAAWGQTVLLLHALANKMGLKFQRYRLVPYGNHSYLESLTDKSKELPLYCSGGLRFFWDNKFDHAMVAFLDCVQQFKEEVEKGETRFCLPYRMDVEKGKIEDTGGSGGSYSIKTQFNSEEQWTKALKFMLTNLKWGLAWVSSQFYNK
UniProt Q86WV6: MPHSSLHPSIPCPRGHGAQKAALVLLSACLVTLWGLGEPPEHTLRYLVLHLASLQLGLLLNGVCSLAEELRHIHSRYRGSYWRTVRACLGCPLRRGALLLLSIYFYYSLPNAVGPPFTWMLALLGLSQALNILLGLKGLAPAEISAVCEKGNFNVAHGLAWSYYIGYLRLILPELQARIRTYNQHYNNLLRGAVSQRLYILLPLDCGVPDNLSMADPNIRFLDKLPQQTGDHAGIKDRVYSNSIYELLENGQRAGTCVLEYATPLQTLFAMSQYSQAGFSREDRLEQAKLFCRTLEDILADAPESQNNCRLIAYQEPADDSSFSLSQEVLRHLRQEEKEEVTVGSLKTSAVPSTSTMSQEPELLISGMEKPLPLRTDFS

Target: Beclin-1, endogenous (human (endogenous in HepaRG or Huh7 derived cells)) (UniProt Q14457)
Experiment: affinity purification with mass spectrometry; HepaRG transfected with HA-STING, 24 h later rhIL-33 (100 ng/mL) for 12 h; HA-STING precipitated by Beclin-1 purified and analysed by LC-MS/MS

- binding: binds
Substance: HA-tagged STING (stimulator of interferon response cGAMP interactor 1) (from UniProt Q86WV6 1-379)

No constants are given. Whether binding was seen depends on the method and setting. In cells and extracts the contact can be indirect. Here binding means that the protein was enriched with, or labelled near, the bait; the list need not be complete.
